Test results from patent US11774396B2, “Systems and methods for patterning and spatial electrochemical mapping of cells” (President and Fellows of Harvard College, priority 2020, dated 2023).
For at least one compound, name, drawing or mass did not settle the structure.

Test system: genetically modified MDCK cell line (RasV12 and GFP gene)
Assay: Cell adhesion by normalized cross-electrode impedance maps of a genetically modified MDCK cell line with tetracycline-switched RasV12 and GFP gene
Type: cell-based, Canine
Details: tetracycline added after the 2 DIV measurement, removed after 4 DIV; compared to control culture without tetracycline

SMILES: CN(C)[C@@H]1C(O)=C(C(N)=O)C(=O)[C@@]2(O)C(O)=C3C(=O)c4c(O)cccc4[C@@](C)(O)[C@H]3C[C@@H]12 [tetracycline]
- effect on cell adhesion (normalized cross-electrode impedance): decrease in cell adhesion
